Assay results from article PMC12040169 (PLOS Biology, 2025).
Some of the results follow.

Tested on: T1, CTL2-GFP (C. trachomatis L2/434/Bu, GFP-expressing)
T1 construct: L2/434/Bu, GFP-expressing
Design: species or system HeLa; Intracellular C. trachomatis growth in HeLa cells, bulk GFP fluorescence relative to DMSO
Conditions: bulk GFP, single well; 28.5 h, 10 µM; inhibitor

SMILES	% of control remaining
Nc1cccc(Oc2ccc3c(c2)C(=O)N(CCC(=O)O)C3=O)c1 [CBK287186]	142.581%
COc1ccc(CNC(=O)[C@H]2C=CCN2C(=O)C2CC2)cc1 [CBK282326]	88.0372%
Cc1cc(NC(=O)Cn2cc(Br)cn2)no1 [CBK305706]	94.4174%
Cn1c(=O)n(C)c2cc(S(=O)(=O)Nc3ccc(Cl)c(C(=O)O)c3)ccc21 [CBK299841]	129.977%
Cc1cccc(-c2ncc(NC(=O)c3ccccn3)nc2-c2ccc(N)cc2)c1 [CBK036694]	192.804%
CN1CCN(c2nc(-c3cccc(F)c3)cnc2N)CC1 [CBK063433]	161.629%
O=C(O)c1ccc(NC(=O)c2cn(-c3ccccc3)nc2-c2ccccc2)cc1 [CBK296120]	129.075%
O=CN1CCc2c([nH]c3cc(F)ccc23)C12CCN(CCc1cccs1)CC2 [CBK040312]	137.715%
CC(=O)c1cc(-c2cccnc2)cs1 [CBK017637]	18.1316%
Cn1c(=O)n(CC#N)c2ccccc21 [CBK025636]	138.985%
O=C(NCCc1c[nH]c2ccc(Cl)cc12)c1ccoc1 [CBK159782]	138.651%
CCC1(C)CC(C(CCN)c2ccc(C)cc2)CCO1 (stereo not drawn) [CBK027350]	126.067%
CCOc1cc(/C=C2/SC(=S)N(c3cccc(C(F)(F)F)c3)C2=O)ccc1OCC(=O)O [CBK264965]	120.435%
Cc1nc(-c2ccccc2)nc2c1c(N)nn2CC(=O)O [CBK287109]	114.252%
CCCn1nc(C)c(-c2cncn2CC(C)N2CCC(C)CC2)c1C (stereo not drawn) [CBK281791]	144.098%
COc1cccc(CNC(=O)c2cc3c(nc2N)CCN(Cc2cccc(C)c2OC)C3)c1 [CBK285682]	141.13%
O=C1CC2(CCN(C(=O)c3ccccn3)CC2)Oc2ccc(Br)cc21 [CBK156443]	129.649%
NCCSC1CC(=O)N(Cc2ccc(F)cc2)C1=O (stereo not drawn) [CBK269025C]	77.646%
Cc1ccc(OC2(C(=O)N3CCCC3C(F)(F)F)CCNCC2)cc1 (stereo not drawn) [CBK307226]	140.731%
CCC1CCCCN1C(=O)C1CCCCC1 (stereo not drawn) [CBK084528]	151.875%
O=C(CNC1CCN(Cc2ccccc2)CC1)Nc1ccc(Cl)cc1C(=O)c1ccccc1Cl [CBK074770]	61.6108%
O=C(Cn1cccnc1=O)NCc1cccnc1OCC(F)(F)F [CBK305949]	98.5993%
COCCNCc1cccc(OCc2ccccc2)c1 [CBK269864C]	135.233%
CN(C)CCn1c([C@@H]2CCCO2)cc2cccnc21 [CBK282288]	117.318%
O=C(Nc1ccc(F)cc1)c1c(NS(=O)(=O)c2ccc(Oc3ccccc3)cc2)sc2c1CCCC2 [CBK028653]	122.553%
COc1ccc(C2Nc3ccccc3C(=O)N2Cc2ccccc2)cc1COc1ccc([N+](=O)[O-])cc1 (stereo not drawn) [CBK033690]	112.495%

Some of these compounds in order of count of non-hydrogen atoms, high to low:
SMILES	% of control remaining
COc1ccc(CNC(=O)[C@H]2C=CCN2C(=O)C2CC2)cc1 [CBK282326]	88.0372%
Cc1nc(-c2ccccc2)nc2c1c(N)nn2CC(=O)O [CBK287109]	114.252%
O=C(NCCc1c[nH]c2ccc(Cl)cc12)c1ccoc1 [CBK159782]	138.651%

Later entries:

SMILES	% of control remaining
Cn1cc([C@H]2C[C@@H](O)[C@@H](CO)O2)c(=O)[nH]c1=O [CBK201171]	142.52%
C=C(C)Cn1c(SCC(C)C)nnc1-c1ccccc1Cl [CBK200078]	115.6%
C=CCn1c2ccccc2c2nnc(SCc3ccc([N+](=O)[O-])cc3)nc21 [CBK265630]	101.373%
O=C(CSc1nnc(-c2ccncc2)s1)NNC(=O)c1cccs1 [CBK269600]	175.338%
CC(=O)NCCNC(=O)c1cc(-c2cccc(S(C)(=O)=O)c2)cnc1NCC1CC1 [CBK076351]	100%
O=C(CCN1C(=O)c2cccc([N+](=O)[O-])c2C1=O)Nc1ccccc1Cl [CBK263121]	112.528%
Cc1ccc(S(=O)(=O)Cc2cccc(C(=O)N3CCN(Cc4ccccc4)CC3)c2)cc1 [CBK269596]	141.028%
Cc1ccn(CCC(=O)NC(Cc2ccsc2)c2nccs2)n1 (stereo not drawn) [CBK285137]	100.566%
Cc1ccc(N(Cc2cc3ccccc3nc2O)C(=O)c2cccnc2)cc1 [CBK265442]	100%
CN(C)CCN(Cc1ccccc1)Cc1ccc([N+](=O)[O-])cc1 [CBK261929]	100%
CCOc1ccc2c(c1)CN(CC(=O)Nc1cc(C)no1)CC2 [CBK305993]	105.847%
Cc1cn(CC(=O)N2CCN(C(=O)c3ccco3)CC2)c(=O)[nH]c1=O [CBK144472]	125.987%
O=C1c2cccc3cccc(c23)C(=O)N1CCN1CCN(CC(O)COc2ccc3c(c2)OCO3)CC1 (stereo not drawn) [CBK074849C]	100%
COc1ccc([N+](=O)[O-])cc1COc1ccc2ccc(=O)oc2c1 [CBK264597]	123.065%
Cc1nc2c(ccc3nc(NC(=O)c4ccccc4)sc32)s1 [CBK287560]	195.561%
COc1ccc(N(CC(=O)O)S(=O)(=O)c2ccccc2)c(OC)c1 [CBK262415]	113.818%
Cc1noc(C)c1Cc1ccc(C(=O)Nc2nc3ccccc3n2C)o1 [CBK299839]	133.543%
O=C1COc2ccccc2C/C=C/C[C@H]2CN(C(=O)CN3CCN(CCO)CC3)CC[C@H]2N1 [CBK292146]	97.3713%
Cc1nc(CN2CCC3(CC2)CN(S(C)(=O)=O)c2ccccc23)cs1 [CBK126687]	104.018%
Cc1noc(C)c1S(=O)(=O)N1CCOCC1c1cccc(F)c1 (stereo not drawn) [CBK304171]	124.067%
COc1cc(CN2CCC3(CC2)CN(C(=O)CO)c2ccccc23)cc(OC)c1OC [CBK131494]	89.6813%
O=C(O)C[C@]1(C(=O)Nc2ccc(F)cc2)CC(/C=C/c2ccccc2)=NO1 [CBK286608]	146.661%
Cn1ncnc1COc1ccc(S(=O)(=O)NC2CCCC2)cc1 [CBK306305]	122.668%
CC(C)(C)c1ccc(-c2cnc3ncccc3c2N)cc1 [CBK083684]	150.877%
O=C(O)c1cccc(CSc2nnc(Cc3ccccc3)[nH]2)c1 [CBK268029]	122.19%
O=C(NCC1CCCO1)c1sc2ccccc2c1Cl (stereo not drawn) [CBK058604]	114.174%

Rewritten field by field: entries from further up.
Cc1noc(C)c1S(=O)(=O)N1CCOCC1c1cccc(F)c1 (stereo not drawn) [CBK304171]
  % of control remaining: 124.067%
COc1cc(CN2CCC3(CC2)CN(C(=O)CO)c2ccccc23)cc(OC)c1OC [CBK131494]
  % of control remaining: 89.6813%

Further structures:

SMILES	% of control remaining
CC(C)(C)CC(=O)N1C[C@@H]2C[C@H](C1)c1ccc(NS(=O)(=O)c3cccs3)c(=O)n1C2 [CBK288708]	116.821%
O=C(NC(Cc1cccs1)c1nccs1)C1CCOC1 (stereo not drawn) [CBK285054]	155.836%
CCOC(=O)C(C)NC(=O)c1ccc2nc(C)sc2c1 (stereo not drawn) [CBK282508]	121.514%
CSCCC(NC(=O)c1ccc(S(=O)(=O)N2CC(C)OC(C)C2)cc1)C(=O)O (stereo not drawn) [CBK297101]	116.217%
FC(F)(F)c1csc(Nc2ccc(Cl)c(Cl)c2)n1 [CBK019093]	53.7174%
Cc1ccccc1OCCCNCCN1CCOCC1 [CBK268590C]	113.614%
CC1CCCN(C(=O)c2cc(S(=O)(=O)N3CCOCC3)ccc2Cl)C1 (stereo not drawn) [CBK305012]	112.786%
Cc1noc(C)c1C(=O)N1CCc2ccccc2C1 [CBK200333]	116.618%
CCc1cc2c(=O)c(-c3nc(C)cs3)c(C)oc2cc1OCc1ccc([N+](=O)[O-])cc1 [CBK268305]	108.79%
O=C(O)C1CCN(C(=O)Cc2c[nH]c3ccccc23)CC1 [CBK202747]	104.223%
CC(=O)N1CCN(Cc2oc(C)cc(=O)c2O)CC1 [CBK288383]	127.814%
COc1ccc(CN2CCN(C(=O)NS(=O)(=O)c3ccc(C)cc3)CC2)cc1F [CBK297156]	92.7682%
O=C(O)CCc1nc2ccccc2n1C1CCCCC1 [CBK286961]	118.298%
COc1ccc([C@@]23CC[C@@H](NC(=O)Nc4cccc(Br)c4)C[C@@H]2N(C)CC3)cc1OC [CBK038225T]	99.3872%
CNC(=O)c1sc2ccccc2c1C1CCN(Cc2cnn(-c3ccc(F)cc3)c2)C1 (stereo not drawn) [CBK285882]	137.364%
CC(C)(C)NC(=O)Cn1cnc2c(cnn2-c2ccccc2)c1=O [CBK269586]	99.2994%
O=C(Nc1ccccc1Cl)N1CCN(CCN2CCOCC2)CC1 [CBK155824]	100%
COc1ccc([C@]23CC[C@H](NC(=O)c4ccc(C(F)(F)F)c(F)c4)C[C@H]2CN(C)C3)cc1OC [CBK082743T]	122.288%
COc1ccc(C)cc1N(CC(=O)Nc1ccc(F)c(F)c1)S(C)(=O)=O [CBK267006]	155.187%
COCCNC(=O)c1ccc(-c2ccccc2OC)nc1N(C)C [CBK106052]	121.419%
COc1ccc(C(=O)C2=C(O)C(=O)N(CCCN(C)C)C2c2ccncc2)cc1C (stereo not drawn) [CBK264871]	109.3%
O=C(/C=C/c1cccc([N+](=O)[O-])c1)Nc1ccc(Cl)c(-c2nc3ccccc3o2)c1 [CBK264610]	121.906%
CCOc1nc2c(c(C(F)(F)F)n1)CC(C)C/C2=C\c1ccccc1 (stereo not drawn) [CBK265800]	116.308%
C=CCn1c(C)c(C)n2c3c(=O)n(CCN4CCOCC4)c(=O)n(C)c3nc12 [CBK269778]	132.548%
CN(c1cccc(C#N)c1)C1CCN(c2ncnc3c2cnn3C)C1 (stereo not drawn) [CBK304720]	121.587%
CCCn1c(SCc2nc(N)nc(Nc3ccccc3CC)n2)n[nH]c1=O [CBK296966]	135.426%
